PubChem BioAssay AID1159578 | Peter MacCallum Cancer Centre – 2015
Screen: 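Genome-wide hunt for genes controlling movement of lymphatic endothelial cells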 (primary screen). System: human lymphatic endothelial cells. Reagents: siRNA pool against human genes, 40 nM. Time to read-out: 48 h after transfection. Measured: 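Cells stained with dye and imaged after a scratch; covered wound area and nuclei counted, duplicates averaged, migration set against mock wells and turned into a robust z-score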. Direction: migration robust z-score: higher = faster migration into the scratch; nuclei per well: higher = more cells in the well. Active means: 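Pools averaging fewer than 3300 nuclei are never called; remaining pools count as changed when migration robust z lies outside -2 to 2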. Meaning of the calls: active = migration changed; inactive = no migration change, or too few cells.
In all, the deposit lists about 18,000 reagents; below is an unselected part. Over the whole deposit, about 1,030 (5.7%) are marked active. 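Inactive calls also include pools with fewer than 3300 nuclei, whose migration was not assessed.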 Raw values are not corrected between plates. Not all columns of the deposit are shown.

With RGP1, how do the results read?
migration robust z-score: -0.18; nuclei per well, duplicate mean: 4720; Outcome: inactive

How did the screen score NPHS1?
migration robust z-score: 0.82; nuclei per well, duplicate mean: 6256; Outcome: inactive

What did the screen give for CTSZ?
migration robust z-score: -0.42; nuclei per well, duplicate mean: 6364; Outcome: inactive

What did the screen give for LHFPL2?
migration robust z-score: 0.24; nuclei per well, duplicate mean: 5604; Outcome: inactive

What is on record for DEF8?
migration robust z-score: -0.44; nuclei per well, duplicate mean: 5890; Outcome: inactive

How did the screen score OR1L1?
migration robust z-score: 0.43; nuclei per well, duplicate mean: 5795; Outcome: inactive

What is on record for WNT2?
migration robust z-score: 0.06; nuclei per well, duplicate mean: 6128; Outcome: inactive

What is on record for FSHB?
migration robust z-score: -0.08; nuclei per well, duplicate mean: 8080; Outcome: inactive

Which result is listed for POC1A?
migration robust z-score: 0.03; nuclei per well, duplicate mean: 5927; Outcome: inactive

With TTC39B, what does the deposit list?
migration robust z-score: 0.19; nuclei per well, duplicate mean: 4802; Outcome: inactive

With ANO2, what was measured?
migration robust z-score: 0.74; nuclei per well, duplicate mean: 4755; Outcome: inactive

Which result is listed for QPCTL?
migration robust z-score: -1.63; nuclei per well, duplicate mean: 6047; Outcome: inactive

How did the screen score ZDHHC11?
migration robust z-score: 0.04; nuclei per well, duplicate mean: 5378; Outcome: inactive

With PIGN, how do the results read?
migration robust z-score: 1.87; nuclei per well, duplicate mean: 7316; Outcome: inactive

With WSCD2, what was measured?
migration robust z-score: -1.98; nuclei per well, duplicate mean: 7062; Outcome: inactive

What did the screen give for GMPPA?
migration robust z-score: 0.03; nuclei per well, duplicate mean: 5372; Outcome: inactive

With PSMC5, what was measured?
migration robust z-score: -1.56; nuclei per well, duplicate mean: 4580; Outcome: inactive

For PELO, what was measured?
migration robust z-score: 1.36; nuclei per well, duplicate mean: 5838; Outcome: inactive

What did the screen give for RNASE13?
migration robust z-score: -0.92; nuclei per well, duplicate mean: 5616; Outcome: inactive

For PRKAR1A, what does the deposit list?
migration robust z-score: 1.85; nuclei per well, duplicate mean: 4026; Outcome: inactive

With HERC2P3, what does the deposit list?
migration robust z-score: -1.12; nuclei per well, duplicate mean: 4314; Outcome: inactive
